Patent US9474749B2 (priority 2004, dated 2016)
Like-named read-outs stand apart in the source and are kept apart here.

What was measured:
[1] = test system: SH-SY5Y cells
[2] = test system: SK-N-SH neuroblastoma cell line; assay: Cellular morphology (Form Factor) of neuroblastoma cells; type: cell-based, human; details: p<0.003
Method: Cell viability was determined via Trypan blue exclusion. An inverted light microscope (Nikon) with a phase-contrast filter was used to observe the cells. Pictures of the cells were taken via a digital camera (Optronix) attached to the microscope ocular. Images were uploaded onto ImagePro Plus Software (Applied Biosystems), where cell viability was calculated based on both the number of cells covering the field and the cells that present as dead from the stain. In addition, ImagePro Plus was used for determining cellular morphology. The area and perimeter were found and used in the formula (4π*Area)/(Perimeter)^2, resulting in a value between 0 (a straight line) and 1 (a perfect circle).

CN1CC[C@]23c4c5ccc(O)c4O[C@H]2[C@@H](O)C=C[C@H]3[C@H]1C5 [Morphine, morphine]
NO release capacity ([1]; high dose 10^−6 M): lost their initial levels of NO release | NO release capacity ([1]; low dose 10^−8 M): remained capable of releasing NO | Form Factor, effect against rotenone toxicity [2]: produced a neuroprotective effect
